Patent US10300061B2, “Aminothiazole compounds as protein kinase inhibitors” (priority 2017, dated 2019)
Counter-ions that a name gives are not always drawn. Some entries share one result that the patent states for a list of compounds.

By UniProt entry, the sequences of proteins in these tests, tags left out. Residues count along the entry.
UniProt P10721, 544-976: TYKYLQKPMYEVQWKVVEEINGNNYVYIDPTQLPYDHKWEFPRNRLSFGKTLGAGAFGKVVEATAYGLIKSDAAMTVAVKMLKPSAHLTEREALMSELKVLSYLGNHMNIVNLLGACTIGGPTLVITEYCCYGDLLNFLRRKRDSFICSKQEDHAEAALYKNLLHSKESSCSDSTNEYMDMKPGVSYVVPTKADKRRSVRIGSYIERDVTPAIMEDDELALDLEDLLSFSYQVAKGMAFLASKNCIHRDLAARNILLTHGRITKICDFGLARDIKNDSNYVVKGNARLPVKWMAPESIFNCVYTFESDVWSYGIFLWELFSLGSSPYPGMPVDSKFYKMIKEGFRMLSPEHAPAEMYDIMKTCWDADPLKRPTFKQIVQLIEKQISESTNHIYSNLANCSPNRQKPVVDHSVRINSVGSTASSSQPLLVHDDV

Key:
FLT3 = target: T1, FLT3 (Homo sapiens, UniProt P36888); test: FLT3 WT Kinase-Glo assay; format: biochemical; conditions: GST-FLT3-KD WT, 1 μM ATP, 30° C. 4 hrs
T1 construct: containing the FLT3 kinase catalytic domain (residues Y567-5993); made in house; host or cells: Sf9 insect cells (baculovirus, pBac-PAK8-GST-FLT3-KD plasmid)
T1 sequence (P36888 567-993 limits assumed): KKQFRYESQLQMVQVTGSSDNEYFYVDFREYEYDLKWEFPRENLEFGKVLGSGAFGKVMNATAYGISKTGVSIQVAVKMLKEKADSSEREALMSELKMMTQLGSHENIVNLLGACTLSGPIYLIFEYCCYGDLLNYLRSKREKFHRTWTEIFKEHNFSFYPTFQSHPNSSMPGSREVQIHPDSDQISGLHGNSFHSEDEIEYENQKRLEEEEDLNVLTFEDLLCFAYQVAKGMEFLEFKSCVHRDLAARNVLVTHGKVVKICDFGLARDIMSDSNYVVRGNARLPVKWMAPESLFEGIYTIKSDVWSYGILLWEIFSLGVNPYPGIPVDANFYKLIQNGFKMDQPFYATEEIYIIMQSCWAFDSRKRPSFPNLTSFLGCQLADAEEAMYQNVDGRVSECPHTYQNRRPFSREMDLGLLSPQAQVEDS

human c-KIT = target: T2, human c-KIT (Homo sapiens, UniProt P10721); test: c-Kit ADP Kinase-Glo assay; format: biochemical; conditions: His-tagged human c-KIT, 20 μM ATP, 30° C. 150 mins
T2 construct: human c-KIT (residues T544-V976) recombinant proteins; His (N); made in house; host or cells: Sf9 baculovirus-insect cell expression system

SMILES	IC50 (FLT3)	IC50 (human c-KIT)
Cc1nc(Nc2ncc(-c3cccnc3)s2)cc(OCCN2CCOCC2)n1 [Compound 6, [2-Methyl-6-(2-morpholin-4-yl-ethoxy)-pyrimidin-4-yl]-(5-pyridin-3-yl-thiazol-2-yl)-amine hydrochloride salt]	< 100 nM	< 100 nM
Cc1nc(Nc2ncc(-c3cccnc3)s2)cc(N2CCN(CCO)CC2)n1 [Compound 9, 2-{4-[2-Methyl-6-(5-pyridin-3-yl-thiazol-2-ylamino)-pyrimidin-4-yl]-piperazin-1-yl}-ethanol hydrochloride salt]	< 100 nM	–
Cc1nc(Nc2ncc(-c3cccnc3)s2)cc(N2CCC(N(C)C)CC2)n1 [Compound 10, [6-(4-Dimethylamino-piperidin-1-yl)-2-methyl-pyrimidin-4-yl]-(5-pyridin-3-yl-thiazol-2-yl)-amine hydrochloride salt]	< 100 nM	–
